Experiment in all cases: EMSA
Holding throughout (conditions): 20 mM Tris pH 8.0, 10 mM NaCl, 2 mM EDTA, 2 mM DTT, 10% glycerol, 100 ng poly(dI-dC), 375 ng protein, 0.2 ng probe, 20 ul, room temperature 30 min; 6% native gel; recombinant protein; protein details: His (pET300/NT-DEST); label: 32P end label
(In general: A gel shift assay detects complexes by their altered migration in electrophoresis.)

Data set [1] has as its system PgMYB12 (Picea glauca).
For data set [2], the system named is PgMYB13 (Picea glauca).
For data set [3], the system named is PgMYB5 (Picea glauca).
Data set [4] has as its system PgMYB22 (Picea glauca).

The exact form of at least one protein or probe is not confirmed. Negatives hold for the conditions tested. For part of these data: At least one verdict was read from the data and is not stated in words by the source.

As for “GGTAAATACCTCCCGCAGCTACCATAATAT (double strand) [CesA -940 to -911 (AC-I like)]”, the binding result is “binds” in data set [1], “no binding” in data set [2], “no binding” in data set [3] and “no binding” in data set [4].

Regarding “GGTAAATAGGTGGGGCAGGTAGGATAATAT (double strand) [mCesA -940 to -911 (mAC-I like)]”, in data set [1], the binding result is given as “no binding”.

Consider “GATCCTTTATACCCACCTACCAGACACG (double strand) [canonical AC-I]”, for which the binding result in data set [1] was “binds”; in data set [2], “no binding”; in data set [3], “no binding”; in data set [4], “no binding”.
